Results are given in words; binding and its absence hold for the method and conditions named. Binding seen in cells or lysates may run through a third protein. Some binding calls cover weakened binding; strength is not graded here.
Molecular target: Flag-Plk1 F559D mutant (human) (UniProt P53350)
Assay: co-IP; anti-Flag immunoprecipitation from HeLa cells stably expressing Flag-Plk1 WT or F559D, TBSN buffer (20 mM Tris-Cl pH 8.0, 150 mM NaCl, 0.5% NP-40); cells treated with 600 nM nocodazole 16 h and 300 nM okadaic acid 1.5 h, and with DMSO or 20 μM Allopole for 2 h; immunoblot

By UniProt entry, the sequences of proteins in these tests, tags left out. Where a name states a change or a piece, a line headed by the entry shows the natural chain unless it says otherwise.
UniProt P53350: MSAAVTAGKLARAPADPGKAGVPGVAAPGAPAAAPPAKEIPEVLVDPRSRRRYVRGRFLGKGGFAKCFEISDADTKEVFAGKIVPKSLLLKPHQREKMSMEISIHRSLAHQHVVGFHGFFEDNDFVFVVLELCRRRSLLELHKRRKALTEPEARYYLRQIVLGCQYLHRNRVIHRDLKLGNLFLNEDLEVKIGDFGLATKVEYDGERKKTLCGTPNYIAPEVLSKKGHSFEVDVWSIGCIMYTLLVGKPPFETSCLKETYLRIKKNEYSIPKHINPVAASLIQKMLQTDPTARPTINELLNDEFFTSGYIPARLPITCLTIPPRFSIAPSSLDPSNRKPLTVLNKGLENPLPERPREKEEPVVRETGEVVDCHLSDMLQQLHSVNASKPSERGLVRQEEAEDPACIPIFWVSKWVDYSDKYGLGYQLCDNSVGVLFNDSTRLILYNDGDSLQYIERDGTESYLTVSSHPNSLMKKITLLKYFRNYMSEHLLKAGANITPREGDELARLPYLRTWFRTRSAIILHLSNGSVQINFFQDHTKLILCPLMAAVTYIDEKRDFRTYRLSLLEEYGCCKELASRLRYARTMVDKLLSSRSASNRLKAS

B1: phosphorylated Cdc25C (protein, UniProt P30307 1-473)
chain: MSTELFSSTREEGSSGSGPSFRSNQRKMLNLLLERDTSFTVCPDVPRTPVGKFLGDSANLSILSGGTPKRCLDLSNLSSGEITATQLTTSADLDETGHLDSSGLQEVHLAGMNHDQHLMKCSPAQLLCSTPNGLDRGHRKRDAMCSSSANKENDNGNLVDSEMKYLGSPITTVPKLDKNPNLGEDQAEEISDELMEFSLKDQEAKVSRSGLYRSPSMPENLNRPRLKQVEKFKDNTIPDKVKKKYFSGQGKLRKGLCLKKTVSLCDITITQMLEEDSNQGHLIGDFSKVCALPTVSGKHQDLKYVNPETVAALLSGKFQGLIEKFYVIDCRYPYEYLGGHIQGALNLYSQEELFNFFLKKPIVPLDTQKRIIIVFHCEFSSERGPRMCRCLREEDRSLNQYPALYYPELYILKGGYRDFFPEYMELCEPQSYCPMHHQDHKTELLRCRSQSKVQEGERQLREQIALLVKDMSP
modifications: phosphorylated (sites not given)
binding: binds

Reference: article PMC10629583, “Specific inhibition of an anticancer target, polo-like kinase 1, by allosterically dismantling its mechanism of substrate recognition” (Proceedings of the National Academy of Sciences of the …, 2023)
